No constants are given. Whether binding was seen depends on the method and setting. Some binding calls cover weakened binding; strength is not graded here.
Tests used:
[1] = molecular target: human Siglec-7 expressed on human cells (primary monocytes, dendritic cells, macrophages, NK cells, microglia, U937 cells, human cells of humanized mice) (human) (UniProt Q9Y286); test: FACS on human primary cells
[2] = molecular target: human Siglec-7 expressed on human cells (primary monocytes, dendritic cells, macrophages, NK cells, microglia, U937 cells, human cells of humanized mice) (human) (UniProt Q9Y286); test: FACS titration on primary human dendritic cells
[3] = molecular target: human Siglec-7 expressed on human cells (primary monocytes, dendritic cells, macrophages, NK cells, microglia, U937 cells, human cells of humanized mice) (human) (UniProt Q9Y286); test: FACS on human primary dendritic cells, APC detection [Cont.]
[4] = molecular target: human Siglec-7 expressed on human cells (primary monocytes, dendritic cells, macrophages, NK cells, microglia, U937 cells, human cells of humanized mice) (human) (UniProt Q9Y286); test: 12-point titration, FACS on primary human dendritic cells, 4 C, goat anti-mouse APC
[5] = molecular target: Histidine-tagged human Siglec-7 (NovoProtein) (human) (UniProt Q9Y286); test: SPR (Biacore), antibody captured on anti-mouse IgG, Siglec-7-his as analyte [Cont.]
[6] = molecular target: Histidine-tagged human Siglec-7 (NovoProtein) (human) (UniProt Q9Y286); test: SPR (Biacore), antibody captured on anti-mouse IgG, Siglec-7-his as analyte

By UniProt entry, the sequences of proteins in these tests, tags left out. Where a name states a change or a piece, a line headed by the entry shows the natural chain unless it says otherwise.
UniProt Q9Y286: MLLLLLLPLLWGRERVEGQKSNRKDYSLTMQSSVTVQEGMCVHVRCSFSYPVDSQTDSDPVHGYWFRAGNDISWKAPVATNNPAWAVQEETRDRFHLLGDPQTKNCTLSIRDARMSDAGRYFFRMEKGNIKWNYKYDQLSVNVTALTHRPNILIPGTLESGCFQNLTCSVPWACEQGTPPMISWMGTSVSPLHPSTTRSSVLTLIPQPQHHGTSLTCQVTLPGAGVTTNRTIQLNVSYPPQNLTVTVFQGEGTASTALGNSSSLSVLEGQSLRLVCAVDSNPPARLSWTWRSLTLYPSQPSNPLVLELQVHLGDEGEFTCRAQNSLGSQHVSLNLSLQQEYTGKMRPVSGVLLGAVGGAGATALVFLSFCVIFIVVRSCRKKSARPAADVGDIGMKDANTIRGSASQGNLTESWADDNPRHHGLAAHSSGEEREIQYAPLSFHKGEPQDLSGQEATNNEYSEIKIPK

Row | binding [5] | binding [6] | Binder | further results
1 | binds |  | anti-Siglec-7 antibody 10B5 (antibody, V domains shown, that light chain holds several Z and differs in its CDRs from S7-10B5.1 / 10B5L1; also called S7-10B5; mAb S7-10B5) VH: QVHLQQSGPELVKPGASVKISCKASGYAFTNCWMNWVRQRPGKGLDWIGRIFPGNGHTNYSGKFKDKATLTEDKSSSTAYMQLSSLTSEDSAVYFCARDYSDYYFDYWGQGTTLTVSS VL: DVQMTQTTSSLSASLGDRVTISCRASQDINTYLNWYQQKPDGTVKLLIYYTSRLHSGVPSRFSGSGSGTDYSLTISNLEQEDIATYFCQQGNTLPWTFGGGTKLEIK | binding [1]: binds; binding [2]: binds; binding [3]: binds; binding [4]: binds
2 |  | binds | anti-Siglec-7 antibody 1A12 (antibody, V domains shown, also called 1Al2) VH: QVQLQQSGSELRSPGSSVKLSCKDFDSEVFPITYMNWVRQKPGHGFEWIGDILPSIGRTMYGEKFEDKATLDADTVSNTAYLELNSLTSEDSAIYYCARSEGYLLAYWGQGTLVTVSA VL: DVZMTQTPLSLPVSLGDQASISCRSSQSLVHSTGNTYLHWYLQKPGQSPKLLIYKVSNRFSGVPDRFSGSGAGTDFTLKISRVEAEDLGVYFCSQNTHVPYTFGGGTKLEIK | 
3 | binds |  | anti-Siglec-7 antibody 7F12 (antibody, V domains shown, Variable domains assembled from FR and CDR entries) VH: QVQLQQSGSELRSPGSSVKLSCKDFDSEVFPITYMNWVRQKPGHGFEWIGDILPSIGRTMYGEKFEDKATLDADTVSNTAYLELNSLTSEDSAIYYCARSEGYLLAYWGQGTLVTVSA VL: DVLMTQTPLSLPVSLGDQASISCRSSQSLVHSTGNTYLHWYLQKPGQSPKLLIYKVSNRFSGVPDRFSGSGAGTDFTLKISRVEAEDLGVYFCSQNTHVPYTFGGGTKLEIK | 
4 |  | binds | anti-Siglec-7 antibody 4A1 (antibody, V domains shown, Variable domains assembled from FR and CDR entries) VH: QVQLQQSGSELRSPGSSVKLSCKDFDSEVFPITYMNWVRQKPGHGFEWIGDILPSIGRTMYGEKFEDKATLDADTVSNTAYLELNSLTSEDSAIYYCARSEGYLLAYWGQGTLVTVSA VL: DVVMTQTPLSLPVSLGDQASISCRSSQSLVHSTGNIYLHWYLQKPGQSPKLLIYKVSNRFZGVPDRFSGSGSGTDFTLKISRVEAEDLGVYFCSQNTHVPYTFGGGTKLEIK | 
5 |  | binds | anti-Siglec-7 antibody 2G4 (antibody, V domains shown, Variable domains assembled from FR and CDR entries) VH: QVQLQQSGSELRSPGSSVKLSCKDFDSEVFPITYMNWVRQKPGHGFEWIGDILPSIGRTMYGEKFEDKATLDADTVSNTAYLELNSLTSEDSAIYYCARSEGYLLAYWGQGTLVTVSA VL: DIQMTQSLSYLSVSLGGRVTITCKASDHINNWLAWYQQKPGNAPRLLISGATSLETGFPSRFSGSGSGKDYTLSITSLQTEDVATYYCHQYWNTPYTFGGGTRLEIK | 
6 |  | binds | anti-Siglec-7 antibody 3E11 (antibody, V domains shown, Variable domains assembled from FR and CDR entries) VH: QVQLQQSGAELARPGASVKLSCKASGYIFTDYGITWVKQRTGQGLEWIGEISPRSGETYFNENYRVKATLTADKSSSTAYMQLFSLTSEDSAVYFCAREGNPFTYWGHGTLVTVSA VL: DVZMTQTPLSLPVSLGDQASISCRSSQSLVHSTGNTYLHWYLQKPGQSPKLLIYKVSNRFCGVPDRFSGSGAGTDFTLKISRVEAEDLGVYFCSQNTHVPYTFGGGTKLEIK | 
7 |  | binds | anti-Siglec-7 antibody 2G1 (antibody, V domains shown, Variable domains assembled from FR and CDR entries; the printed VL FR1 looks shortened at its N-terminus; also called 2G11 (misprint in text)) VH: EVKLVESGGTLVKPGGSLKISCAASGFTFSNYDMSWVRQNPEKRLEWVATISSGGDYTYYPDIFKGRFTISRDDAKNALYLQMSSLRSEDTALYYCARHGYGNYDWYFDVWGAGATVTVSS VL: VLTQSPAIMSASPGEKVTMTCSANSSFIYMYWYQQKPGSSPRLLIFDTSNLASGVPIRFSGSGSGTSYSLTISRMEAEDTATYYCQQWSSSPLTFGGGTKLELK | 
8 | binds |  | anti-Siglec-7 antibody 4E3 (antibody, V domains shown, VL FR1 there holds a Z); also called S7-4E3; mAb S7-4E3) VH: EVQLVESGGALVKPGGSLKISCAVSGFIFSNYDMSWVRQNPEKRLEWVATISSGGGYTYYPDSVKGRFTISRDNAKNALYLQMSSLRSEDTALYYCTRHGYGNYDWYFDVWGAGATVTVSS VL: QIVLTQSPAILSASPGEKVTMTCSANSSFTYMYWYQQKPGSSPRLLIFDTSNLASGVPIRFSGSGSGTSYSLTISRMEAEDTATYYCQQWSSSPLTFGAGTKLELK | 
9 | binds |  | anti-Siglec-7 antibody 7E11 (antibody, V domains shown, Variable domains assembled from FR and CDR entries) VH: QVQLKQSGPVLVAPSQSLSITCTVSGFSLSNYGVHWVRQFPGKGLEWLGVIWAGGITNYNSVLMSRLSISKDNSKSQVFLKMNSLQTDDTAMYYCAKQGGTSFSYWGQGTLVTVSA VL: DIQMTQSPASQSASLGESVTITCLASQTIGTWLAWYQQKPGKSPQLLIYAATSLADGVPSRFSGSGSGTKFSFKISSLQAEDFVSYYCQQLYSTPYTFGGGTKLEIK | 
